Laboratory results published in paper PMC10858868, “TFIP11 promotes replication fork reversal to preserve genome stability”.

System: TFIP11 GCFC-domain deletion mutant
Experiment: EMSA
Details: 7.5-30 nM protein, 0.5 nM DNA; EMSA: 10 mM MgCl2, 2.5% glycerol, 0.05% NP-40, 0.5 nM biotin-DNA, 20 min, room temperature (Pierce LightShift kit); recombinant protein; protein details: His-SUMO (N-terminal); label: 5'-biotin on oligo 1

“GACGCTGCCGAATTCTACCAGTGCCTTGCTAGGACATCTTTGCCCACCTGCAGGTTCAC / ATAGTCGGATCCTCTAGACAGCTCCATGTAGCAAGGCACTGGTAGAATTCGGCAGCGTC [splayed arm (oligo 1 + oligo 3)]”: no binding.

For at least one entry, the source does not settle the construct or the ends of the probe. Negatives hold for the conditions tested.
